# Reference: PubChem BioAssay AID540256 (National Center for Advancing Translational Sciences (NCATS), 2011)
# Out of some 300,000 compounds screened, about 3,700 (1.2%) were called active. The inconclusive results got no clear call from the source; some entries with a clear call stand among them for comparison. Calls come from the whole dose curve; tested in HEK293 cells. Potencies beside an inconclusive call are fits to weak or partial responses and may not hold up.
# Assay: qHTS for Inhibitors of binding or entry into cells for Lassa Virus; note: nearly all actives have a fitted effect of over 50% in size
# Conditions: Lassa virus pseudotype entry inhibition, cell reporter; activity change, negative = inhibition: at 37.9 µM (top of the series) unless noted
# % is set by controls: 0 for no effect and ±100 for the full control effect; potency is the fitted concentration of half-maximal effect.
Structure (SMILES),Potency,"activity change, negative = inhibition"
Cc1ccc(N(C(=O)c2sc(C)nc2C)C(C(=O)NCc2ccco2)c2ccccc2)cc1 (configuration not stated),active: 7.3 µM,
CC(C)c1ccc(COC(=O)CN2C(=O)NC3(CCCCC3C)C2=O)cc1 (configuration not stated),"inconclusive: 35.5 µM [inhibitor, partial curve, poor fit]",
O=C(CSc1nc2ccc(N3CCOCC3)cc2c(=O)n1CCc1ccccc1)NCC1CCCO1 (configuration not stated),"inconclusive: 35.5 µM [inhibitor, single point]",
O=C(COC(=O)c1cccnc1Cl)NCC1CCCO1 (configuration not stated),"inconclusive: 14.1 µM [activator, single point]",
OC1(c2ccc(OC(F)F)cc2)CSC(=Nc2cccnc2)N1C1CC1 (configuration not stated),"inconclusive: 1.41 µM [inhibitor, single point]",
COc1ccc2oc(=O)c(-c3nnc(-c4ccc(C)cc4)o3)cc2c1,,inactive: 21.8% [at 46.1 µM]
CCN(CC)S(=O)(=O)c1cc(NC(=O)c2ccccc2OCc2c(C)noc2C)ccc1C,active: 11.2 µM,
COc1cc(Cl)c(CN2CCCC(CO)(Cc3ccccc3F)C2)cc1OC (configuration not stated),"inconclusive: 35.5 µM [inhibitor, partial curve, poor fit]",
CCC(COC)NCc1cn(-c2ccc(OC)cc2)nc1-c1cccc(F)c1 (configuration not stated),"inconclusive: 22.4 µM [inhibitor, single point]",
c1ccc(Nc2nc(N3CCNCC3)nc(N3CCOCC3)n2)cc1,active: 8.91 µM,
CC(NC(=O)Nc1cccc([N+](=O)[O-])c1)(C(F)(F)F)C(F)(F)F,"inconclusive: 12.6 µM [inhibitor, partial curve, poor fit]",
CC1CCCN(c2nc3c(-c4ccc(Cl)cc4)nnn3c3ccccc23)C1 (configuration not stated),,inconclusive: 6.8% [activator] [at 46.1 µM]
OC[C@@H](O)[C@H](O)C(/C=N/Nc1ccccc1)=N\Nc1ccccc1,,inactive: -7.9%
Cc1ccnc(N/C=C/C(=O)c2ccc(Br)cc2)c1,"inconclusive: 11.2 µM [inhibitor, single point]",
COc1ccc(CNC(=O)c2ccc3c(=O)n(CCCN4CCCC4=O)c(=S)[nH]c3c2)cc1,,inactive: -27.6%
CC(=O)Nc1ccc(-c2nnc(SCC(=O)Nc3ccc4c(c3)oc3ccccc34)n2C)cc1,"inconclusive: 6.51 µM [activator, single point]",
CCc1cccc(NC(=O)Cc2ccc([N+](=O)[O-])cc2)c1,,inactive: -0.839%
O=C(CN(c1ccc(F)cc1)S(=O)(=O)c1ccccc1)NCCSC1CCCCC1,"inconclusive: 2 µM [inhibitor, partial curve, poor fit]",
Cc1nn(C)c(C(=O)Nc2ccn(Cc3ccccc3F)n2)c1[N+](=O)[O-],,inactive: -5.78% [at 14.3 µM]
COc1ccc(S(=O)(=O)NCc2nc3nc(C)cc(C)n3n2)cc1,,inactive: 3.5% [at 46.1 µM]
Cc1ccc(C(=O)OCC(=O)NCc2cccs2)c(C)c1,"inconclusive: 1.58 µM [inhibitor, full curve, poor fit]",

# A draw from above in order of length of the SMILES, high to low:
Structure (SMILES),Potency,"activity change, negative = inhibition"
CCN(CC)S(=O)(=O)c1cc(NC(=O)c2ccccc2OCc2c(C)noc2C)ccc1C,active: 11.2 µM,
CC1CCCN(c2nc3c(-c4ccc(Cl)cc4)nnn3c3ccccc23)C1 (configuration not stated),,inconclusive: 6.8% [activator] [at 46.1 µM]
COc1ccc(S(=O)(=O)NCc2nc3nc(C)cc(C)n3n2)cc1,,inactive: 3.5% [at 46.1 µM]

# The results go on.

Structure (SMILES),Potency,"activity change, negative = inhibition"
COc1ccc(C(CNc2ncnc3sc(C)c(C)c23)N(C)C)cc1 (configuration not stated),"inconclusive: 17.8 µM [inhibitor, partial curve, poor fit]",
CC(C)NCCOCCOc1ccc(Cl)cc1Br,"inconclusive: 35.5 µM [inhibitor, single point]",
CCN(CCCNC(=O)C1c2ccccc2C(=O)N(CCOC)C1c1ccc(F)cc1)Cc1ccccc1 (configuration not stated),,inactive: 0.899%
COc1ccccc1Cn1cc(C(=O)c2ccc(C)cc2)c(=O)c2cc3c(cc21)OCCO3,"inconclusive: 20 µM [inhibitor, partial curve, poor fit]",
Cc1onc(-c2ccccc2)c1C(=O)NC(=S)NNC(=O)c1ccco1,"inconclusive: 35.5 µM [inhibitor, single point]",
C[n+]1cc[nH]c1SCC(=O)c1ccc(Cl)cc1,"inconclusive: 35.5 µM [inhibitor, single point]",
CC(C)c1ccc(/C=N/NC(=O)c2nnn(-c3nonc3N)c2CSC2=NCCS2)cc1,"inconclusive: 35.5 µM [inhibitor, single point]",
COCCCN(C(=S)Nc1cccc(Cl)c1)C(C)c1ccncc1 (configuration not stated),"inconclusive: 11.6 µM [inhibitor, partial curve]",
Cc1nn(-c2ccccc2)cc1C(=S)Nc1ccccc1,"inconclusive: 11.2 µM [inhibitor, partial curve, poor fit]",
CCCc1nc2ccccc2c(C(=O)OCC(=O)Nc2ccc(S(=O)(=O)N3CCOCC3)cc2)c1CC,"inconclusive: 16.4 µM [inhibitor, partial curve, poor fit]",
CC(NCCC1(Cc2ccccc2Cl)CCOC(C)(C)C1)c1cccs1 (configuration not stated),"inconclusive: 35.5 µM [inhibitor, partial curve, poor fit]",
CC(C)Oc1ccc(C(=O)Nc2nnc(SCC(=O)N3CCOCC3)s2)cc1,active: 2.82 µM,
COc1ccc(CCC(=O)Nc2cnc3ccccc3c2)cc1,,inactive: -13.9% [at 46.1 µM]
Cc1ccc(Cl)cc1N1CCN(C(c2cccnc2)c2nnnn2C2CCCCC2)CC1 (configuration not stated),"inconclusive: 18.3 µM [inhibitor, partial curve]",
CCCC(=O)Nc1cc(OC)c(NC(=S)Nc2ccc(CC)cc2)cc1OC,"inconclusive: 15.8 µM [inhibitor, single point]",
CC(C)(C)NC(=O)C(c1ccncc1)N(Cc1cccs1)C(=O)Cn1nnc(-c2cccs2)n1 (configuration not stated),,inactive: -16.8%
CCC(=O)NNc1nc2c(C)cc(C)cc2s1,"inconclusive: 0.501 µM [inhibitor, partial curve, poor fit]",
O=C(CNc1cccc([N+](=O)[O-])c1)NCCCc1ccccc1,"inconclusive: 3.98 µM [activator, single point]",
CCOc1ccc(CNC(=O)CCCc2cn(C)c3ccccc23)cc1OC,"inconclusive: 16.4 µM [inhibitor, partial curve]",
COc1ccc(C=C2SC(=O)NC2=O)cc1OC,"inconclusive: 14.1 µM [activator, single point]",
CCC(C)c1ccccc1NC(=O)COC(=O)c1ccc(C)c(NC(=O)c2ccco2)c1 (configuration not stated),"inconclusive: 14.6 µM [activator, partial curve, poor fit]",
